These are yes or no findings as the source states them, for the method shown. In cells and extracts the contact can be indirect. Some binding calls cover weakened binding; strength is not graded here.

Chains of the proteins cited; added tags and fusions are not shown.
UniProt Q9Y463: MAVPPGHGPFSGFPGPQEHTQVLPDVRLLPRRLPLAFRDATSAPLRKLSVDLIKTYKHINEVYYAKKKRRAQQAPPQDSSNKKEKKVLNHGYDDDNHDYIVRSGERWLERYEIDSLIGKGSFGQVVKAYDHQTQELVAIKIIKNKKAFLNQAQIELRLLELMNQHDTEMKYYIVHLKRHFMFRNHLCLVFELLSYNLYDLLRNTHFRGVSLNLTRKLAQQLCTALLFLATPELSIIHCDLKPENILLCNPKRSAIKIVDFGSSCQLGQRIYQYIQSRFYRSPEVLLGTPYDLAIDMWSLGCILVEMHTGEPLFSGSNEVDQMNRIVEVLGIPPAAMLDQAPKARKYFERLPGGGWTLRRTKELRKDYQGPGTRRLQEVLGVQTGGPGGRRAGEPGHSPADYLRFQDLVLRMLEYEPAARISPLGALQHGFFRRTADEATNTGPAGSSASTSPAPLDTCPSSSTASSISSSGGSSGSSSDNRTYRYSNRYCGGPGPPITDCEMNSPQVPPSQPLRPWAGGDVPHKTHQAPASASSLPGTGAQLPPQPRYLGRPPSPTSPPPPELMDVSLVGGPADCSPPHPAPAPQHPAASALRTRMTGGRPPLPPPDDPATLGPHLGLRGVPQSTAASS
UniProt Q9NYF3: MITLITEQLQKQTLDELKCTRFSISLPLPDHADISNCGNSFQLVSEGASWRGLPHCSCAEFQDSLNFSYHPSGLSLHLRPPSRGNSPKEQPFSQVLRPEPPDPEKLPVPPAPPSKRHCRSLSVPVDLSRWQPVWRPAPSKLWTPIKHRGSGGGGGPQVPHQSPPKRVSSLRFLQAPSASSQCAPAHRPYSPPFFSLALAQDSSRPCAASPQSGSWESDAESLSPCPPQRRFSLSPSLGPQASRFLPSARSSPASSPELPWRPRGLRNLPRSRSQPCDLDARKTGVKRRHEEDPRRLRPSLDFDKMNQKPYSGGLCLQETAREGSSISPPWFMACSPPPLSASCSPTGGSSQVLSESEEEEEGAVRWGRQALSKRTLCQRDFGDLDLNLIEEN

Experimental findings from PMC10559228 are described below.

The assay deals with 3xFLAG-DYRK1B(WT) (UniProt Q9Y463). In words: co-IP; 3xFLAG-DYRK1A (WT or deletion mutants) or 3xFLAG-DYRK1B co-expressed with GFP-FAM53C in COS7; extracts with anti-FLAG resin 12 h at 4°C; Western blot with anti-GFP; in Fig 9 cells with or without Geldanamycin (2.5 μM 4 h). (In general: Immunoblotting shows a protein as a band on a membrane.)

As for GFP-FAM53C (from UniProt Q9NYF3 1-392), the binding result was “binds”.
